# Laboratory results published in US20180200257A1, “METHODS FOR THE TREATMENT OF INFLAMMATORY DISORDERS” (Galapagos NV, priority 2015, published 2018).
# Further values from the same series stand in other lists.
# How the values were obtained:
# [1] = tested on: subjects with moderately to severely active RA who have an inadequate response to methotrexate (MTX); experiment: Study 1 (add-on to MTX) - Subject VAS mean changes (ACR patient assessment); type: in vivo, human; details: 24 weeks results
# Method: The scale is 100 mm, the decrease in mm is shown. […] (dotted line), 100 mg q.d. (dashed line) or 200 mg q.d. (dark solid line). […] The results shown in the figures are calculated using Last-Observation-Carried-Forward (LOCF), which handles missing data by assigning the value recorded at the patient's last visit to all subsequent missed visits.
# (§1) Double-blind, placebo-controlled add on study in subjects with moderately to severely active RA who have an inadequate response to methotrexate (MTX) (oral or parenteral).
# (§2) 595 subjects randomized to one of 6 dose regimens of Compound 1 (dosed as [Compound 1:HCl:3H2O]) (3 dose levels administered either once or twice daily) or placebo on top of each subject's stable dose of MTX.
# (§3) Compound 1 (dosed as [Compound 1:HCl:3H2O]) is dosed for twelve weeks once daily (q.d.) (50 mg, 100 mg or 200 mg) or twice daily (b.i.d.) (25 mg, 50 mg or 100 mg); or placebo.
# (§4) At Week 12, the subjects on placebo who have not achieved 20% improvement in swollen joint count (SJC66) and tender joint count (TJC68) are re-randomized automatically to receive Compound 1 (dosed as a [Compound 1:HCl:3H2O]) either at 100 mg q.d. or 50 mg b.i.d. doses in a blinded fashion; subjects on 50 mg q.d. who have not achieved 20% improvement in SJC66 and TJC68 will be assigned to 100 mg q.d. and subjects on 25 mg b.i.d. that have not achieved a 20% improvement in SJC66 and TJC68 will be assigned to 50 mg b.i.d. Subjects who switch treatment at week 12 are handled as if they discontinued at week 12 for the purpose of statistical analysis, whereas subjects in the other groups will maintain their randomized treatment until Week 24.
# Firstly, the patient is asked to make a vertical mark on a 100 mm Visual Analog Scale (VAS) corresponding to their general health or global disease activity on a touch screen to measure the VAS value, which is used in the formula below.
# (§5) The American College of Rheumatology (ACR) composite score, which evaluates clinical improvement relative to an initial assessment, is a commonly accepted efficacy end point for clinical trials in patients with rheumatoid arthritis. The ACR score correspond to a percentage improvement in pre-set parameters, and therefore measures the evolution of the disease in a patient. For example, ACR20 denotes at least 20% improvement in tender and swollen joint counts and in three of the following end points: global assessment by the patient, global assessment by the doctor, C reactive protein (CRP), patient's pain Visual Analogue Scale and Health Assessment Questionnaire Score. The number of swollen joints, ESR and CRP correlate with radiographic progression of joint damage, whereas tender joint counts, as well as global assessments by doctors and patients, and patients' reports of pain, are sensitive to change in clinical outcomes. Physical function, as assessed by the Health Assessment Questionnaire Score, is a potent predictor of the risk of disability in rheumatoid arthritis (Felson and American College of Rheumatology Committee to Reevaluate Improvement Criteria, 2007; Felson et al., 1993).
# [2] = tested on: subjects with moderately to severely active RA who have an inadequate response to methotrexate (MTX); experiment: Study 1 (add-on to MTX) - ACR responses (ACR20/50/70); type: in vivo, human
# Excerpt: The terms “ACR20”, “ACR50” and “ACR70” as used herein are scores which indicate how much a patient's rheumatoid arthritis has improved according to criteria set out by the American College of Rheumatology (ACR). The ACR score represents a percentage. An ACR20 score means that a person's RA has improved by 20%, an ACR50 score means it has improved by 50%, and an ACR70 score means it has improved by 70%. Specifically, to qualify for an ACR20 score, a person with RA must have at least 20% fewer tender joints and at least 20% fewer swollen joints. In addition the patient must show a 20% improvement in at least three of the following five areas: the person's overall (global) assessment of his or her own RA, the physician's global assessment of the person's RA, the person's assessment of his or her own pain, the person's assessment of his or her own physical functioning, and the results of an erythrocyte sedimentation rate or C-reactive protein (CRP) blood test (both of which test for inflammation). ACR50 and ACR70 scores use the same criteria but require 50% and 70% improvement, respectively, (Felson et al., 1993). In the data presented herein the CRP blood test is used.
# as §1, §2, §3, §4, §5
# In particular, the list of parameters used to assess ACR score can be found in the Table XCVI below and the results of the ACR responses at week 12 via either NRI or LOCF are shown in the tables below. The Hommel-corrected p-value for the pairwise comparisons of each group with placebo is shown. […]
# [3] = 50 mg q.d., week 20, 24 weeks results
# [4] = 50 mg q.d., week 24, 24 weeks results
# [5] = 100 mg q.d., week 16, 24 weeks results
# [6] = 100 mg q.d., week 20, 24 weeks results
# [7] = 100 mg q.d., week 24, 24 weeks results
# [8] = 200 mg q.d., week 16, 24 weeks results
# [9] = 200 mg q.d., week 20, 24 weeks results
# [10] = 200 mg q.d., week 24, 24 weeks results
# [11] = 2 × 25 mg b.i.d., week 16, 24 weeks results
# [12] = 2 × 25 mg b.i.d., week 20, 24 weeks results
# [13] = 2 × 25 mg b.i.d., week 24, 24 weeks results
# [14] = 2 × 50 mg b.i.d., week 16, 24 weeks results
# [15] = 2 × 50 mg b.i.d., week 20, 24 weeks results
# [16] = 2 × 50 mg b.i.d., week 24, 24 weeks results
# [17] = 2 × 100 mg b.i.d., week 16, 24 weeks results
# [18] = 2 × 100 mg b.i.d., week 20, 24 weeks results
# [19] = 2 × 100 mg b.i.d., week 24, 24 weeks results
structure (smiles),measurement,setting,value
"O=C(Nc1nc2cccc(-c3ccc(CN4CCS(=O)(=O)CC4)cc3)n2n1)C1CC1 [Compound 1, cyclopropanecarboxylic acid {5-[4-(1,1-dioxo-thiomorpholin-4-ylmethyl)-phenyl]-[1,2,4]triazolo[1,5-a]pyridin-2-yl}-amide]",Subject VAS mean changes (ACR patient assessment),"[1]; 50 mg q.d., week 1, LOCF",−11.2
same,Subject VAS mean changes (ACR patient assessment),"[1]; 100 mg q.d., week 1, LOCF",−12.9
same,Subject VAS mean changes (ACR patient assessment),"[1]; 200 mg q.d., week 1, LOCF",−16.7
same,Subject VAS mean changes (ACR patient assessment),"[1]; 2 × 25 mg b.i.d., week 1, LOCF",−8.2
same,Subject VAS mean changes (ACR patient assessment),"[1]; 2 × 50 mg b.i.d., week 0, LOCF",0.0
same,Subject VAS mean changes (ACR patient assessment),"[1]; 2 × 50 mg b.i.d., week 1, LOCF",−8.7
same,Subject VAS mean changes (ACR patient assessment),"[1]; 2 × 100 mg b.i.d., week 0, LOCF",0.0
same,Subject VAS mean changes (ACR patient assessment),"[1]; 2 × 100 mg b.i.d., week 1, LOCF",−20
same,ACR50 (NRI),[2]; [3],39.0%
same,ACR70 (NRI),[2]; [3],23.2%
same,ACR50 (NRI),[2]; [4],35.4%
same,ACR70 (NRI),[2]; [4],22.0%
same,ACR50 (NRI),[2]; [5],52.9%
same,ACR70 (NRI),[2]; [5],24.7%
same,ACR50 (NRI),[2]; [6],45.9%
same,ACR70 (NRI),[2]; [6],30.6%
same,ACR50 (NRI),[2]; [7],45.9%
same,ACR70 (NRI),[2]; [7],32.9%
same,ACR50 (NRI),[2]; [8],48.8%
same,ACR70 (NRI),[2]; [8],26.7%
same,ACR50 (NRI),[2]; [9],52.3%
same,ACR70 (NRI),[2]; [9],23.3%
same,ACR50 (NRI),[2]; [10],50.0%
same,ACR70 (NRI),[2]; [10],29.1%
same,ACR50 (NRI),[2]; [11],30.2%
same,ACR70 (NRI),[2]; [11],10.5%
same,ACR50 (NRI),[2]; [12],38.4%
same,ACR70 (NRI),[2]; [12],10.5%
same,ACR50 (NRI),[2]; [13],34.9%
same,ACR70 (NRI),[2]; [13],20.9%
same,ACR50 (NRI),[2]; [14],31.8%
same,ACR70 (NRI),[2]; [14],21.2%
same,ACR50 (NRI),[2]; [15],41.2%
same,ACR70 (NRI),[2]; [15],22.4%
same,ACR50 (NRI),[2]; [16],35.3%
same,ACR70 (NRI),[2]; [16],23.5%
same,ACR50 (NRI),[2]; [17],61.9%
same,ACR70 (NRI),[2]; [17],36.9%
same,ACR50 (NRI),[2]; [18],58.3%
same,ACR70 (NRI),[2]; [18],36.9%
same,ACR50 (NRI),[2]; [19],54.8%
same,ACR70 (NRI),[2]; [19],39.3%
